Test results as given in paper PMC8031663.

Experiments:
[1] = molecular target: hnRNPK (endogenous, PC3 lysate) (UniProt P61978); test: pull-down; settings: pull-down: 10 mM Tris-Cl pH 7.5, 20 mM KCl, 1.5 mM MgCl2, 5 mM DTT, 0.5 mM EDTA, 5% glycerol, 0.5% NP-40, 4 C; protein in an extract; label: 3' biotin
[2] = molecular target: hnRNPK (6xHis-GFP fusion) (Homo sapiens) (UniProt P61978); test: MST; settings: higher Kd than motif_mimic, value only in figure; MST: 50 mM HEPES, 0.3 M KCl, pH 7.4, 40 nM RNA, protein dilution from 150 uM, temperature not stated; recombinant protein; protein details: N-terminal 6xHis-GFP, TEV site; label: 5' 6-FAM
BSA = BSA (UniProt P02769); test: MST; settings: no dose response, negative control; MST: 50 mM HEPES, 0.3 M KCl, pH 7.4, 40 nM RNA, protein dilution from 150 uM, temperature not stated; commercial protein; label: 5' 6-FAM

| Sequence | binding result [1] | further results |
| --- | --- | --- |
| AAUUGCACGGUAUCCAUCUGUA [biotin-miR-363-3p] | no binding |  |
| UCAACGCACUACAGAACUUUGU [motif_mutated (motif_mutant)] |  | binding result [2]: binds more weakly |
| UCAGUGCACUACAGAACUUUGU [biotin-miR-148a-3p] | binds |  |
| UCAGUGCACUACAGAACUUUGU [motif_mimic (miR-148a-3p)] |  | binding result (BSA): no binding |
| UCGAAUGCCUACAGAACUUUGU [motif_scramble (motif_scrambled)] |  | binding result [2]: binds more weakly |
| UGUAAACAUCCUCGACUGGAAG [biotin-miR-30a-5p] | binds |  |
| UGUAAUCACGACAUGACCUUUG [biotin-scrambled miRNA] | no binding |  |

For some of these results: No signal at the amounts used counts as a negative. For some of these results: For at least one entry, the source does not settle the construct or the ends of the probe. For some of these results: Weaker means in comparison with the reference protein, sequence or condition of that experiment. For some of these results: At least one result comes from cells or an extract, where the contact may be indirect.
